The subject of the assay is Salmonella enterica serovar Typhimurium SL1344. The assay is described as follows: bacterial growth OD600 after 18 h with compound and polymyxin B; higher = more bacterial growth (less inhibition). The note with it: 50 µM, Mueller-Hinton broth.

The list shows a part of the results. Values are raw readings; no control value is given beside them.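 Primary screen: polymyxin B was added at a level permeabilizing Salmonella outer membranes while sparing inner membranes. DMSO wells, both with and without polymyxin B, established maximum growth. Plate-to-plate variation meant each plate was ranked on its own, and the lowest-OD600 compounds were selected as hits.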

Consider `COc1cc(CN2CCOc3ccc(C(O)CCc4ccccc4)cc3C2)cc(OC)c1` (stereo not given), for which, where the note is “polymyxin B 0.75 µg/mL”, the “bacterial growth OD600” value was -0.002.
On to `CC(=O)NCCC1CCN(c2nc3nonc3nc2N2CCSCC2)CC1`, for which, under “polymyxin B 0.75 µg/mL”, the “bacterial growth OD600” value stood at 0.784.
Take `O=C(CN1CCCCC1)N1CCCC(N2CCN(c3cccc(Cl)c3)CC2)C1` (stereo not given): the “bacterial growth OD600” value (polymyxin B 1 µg/mL) was 0.884.
`Cn1nc(C(=O)N2CCc3onc(-c4ccccc4F)c3C2)ccc1=O`: the “bacterial growth OD600” value (polymyxin B 0.75 µg/mL) worked out at 0.752.
For the molecule `O=C(c1cn(CCc2ccccc2)nn1)N1CCC(OCc2ccccc2)CC1`, the “bacterial growth OD600” value (polymyxin B 1 µg/mL) was found to be 0.944.
Consider `CC(=O)N1CCC[C@H]1C(=O)NCc1cccnc1Oc1ccccc1C`, for which the “bacterial growth OD600” value (polymyxin B 0.75 µg/mL) amounted to 0.954.
Still for that read-out and setting: then `CN(C)CCC1CN(Cc2nc3c(s2)CCCC3)CCO1` (stereo not given), with 0.862; and `O=C(NC1CCCN(CCc2ccccc2)C1)c1ccccc1C(F)(F)F` (stereo not given), with 0.981.
With `COCCNC(=O)c1cccc(OC2CCN(Cc3ccnc4ccccc34)CC2)c1`, the “bacterial growth OD600” value (polymyxin B 1 µg/mL) stood at 0.941.
Take `CCCS(=O)(=O)NCc1cc(NS(=O)(=O)c2cccc(C(F)(F)F)c2)cc(C(=O)OC)c1`: the “bacterial growth OD600” value (polymyxin B 0.75 µg/mL) was found to be 0.554.
In the case of `Cc1noc(C)c1C(=O)NC1CCCc2nc(-c3ccccc3)ncc21` (stereo not given), the “bacterial growth OD600” value (polymyxin B 1 µg/mL) worked out at 1.03.
As to `COc1ccc(CCN2CCCC(CN(C)Cc3cnn(C(C)C)c3)C2)cc1` (stereo not given), the “bacterial growth OD600” value (polymyxin B 1 µg/mL) was found to be 0.841.
`Cc1c(CN2CCCC(C(=O)c3cccc(OC(C)C)c3)C2)c(=O)n(-c2ccccc2)n1C` (stereo not given): the “bacterial growth OD600” value (polymyxin B 1 µg/mL) was found to be 0.773.
With `COc1ccc(OC2CCN(C(=O)C3CC3)CC2)c(C(=O)NCc2cc(F)cc(F)c2)c1`, the “bacterial growth OD600” value (polymyxin B 1 µg/mL) came to 1.
As for `COc1ccccc1CCN1CCCC(CN(C)C(=O)C(C)(C)C)C1` (stereo not given), the “bacterial growth OD600” value (polymyxin B 1 µg/mL) came to 0.77.
With `CN(C(=O)c1ccsc1)C(Cc1ccccc1)C1CCN(C(=O)/C=C/c2ccccc2)CC1` (stereo not given), the “bacterial growth OD600” value (polymyxin B 0.75 µg/mL) came to 0.031.
Take `Cc1ccsc1C(=O)N1CCc2onc(-c3ccccc3F)c2C1`: the “bacterial growth OD600” value (polymyxin B 0.75 µg/mL) was 0.622.
Same read-out and setting: then `COCC(=O)Nc1cc(C(=O)N2CCC(Oc3ccccc3F)CC2)c2c(c1)nc(C1CCC1)n2C`, with 0.974; and `CCC1CN(CC(=O)NC(CCn2ccnc2)c2ccccc2)Cc2cc(OC)ccc2O1` (stereo not given), with 0.785; and `CCNC(=O)c1sc2ncnc(N3CCCCCCC3)c2c1C`, with 0.747.
